This note sets out measurements from publication PMC8074078.

Protein sequences, listed by entry. Tags and fused reporters are not part of them. Lines headed by an entry give the natural chain unless they say otherwise; changes in a name come on top. Chains listed by the source or under a name are the forms on record and can include a tag or linker.
His6-PACRG (Parkin co-regulated gene) (Q96M98-2, form named): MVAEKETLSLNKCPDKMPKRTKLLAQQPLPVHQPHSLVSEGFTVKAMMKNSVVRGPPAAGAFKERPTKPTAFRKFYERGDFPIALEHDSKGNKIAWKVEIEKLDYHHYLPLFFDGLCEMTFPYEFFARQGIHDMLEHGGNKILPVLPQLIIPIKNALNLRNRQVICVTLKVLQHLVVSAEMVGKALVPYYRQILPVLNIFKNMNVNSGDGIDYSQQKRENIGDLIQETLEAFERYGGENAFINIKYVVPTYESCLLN

The target of one experiment is His6-GST-PACRG (human) (UniProt Q96M98). The experiment is described as follows: SEC; Sephacryl S-200 gel filtration (1.6 cm x 50 cm), 50 mM Tris-HCl, 150 mM NaCl, 1 mM PMSF, 1 mM EDTA, pH 7.0; elution volume compared with BSA and cytochrome c; both purified. For orientation: SEC sorts molecules by how far they enter the pores of the column.
The target in experiment [1] is His6-PACRG (Parkin co-regulated gene) (human) (UniProt Q96M98). The experiment is described as above.

No constants are given. Whether binding was seen depends on the method and setting.

Regarding “His6-GST-PACRG (from UniProt Q96M98-2 1-257)”, the binding result in the experiment with His6-GST-PACRG (human) is reported as “no binding”. Take “His6-PACRG (Parkin co-regulated gene) (from UniProt Q96M98-2 1-257)”: the binding entry in experiment [1] is “no binding”.
